Assay results taken from publication PMC8632988, “Inhibition of SYK and cSrc kinases can protect bone and cartilage in preclinical models of osteoarthritis and rheumatoid arthritis” (Scientific Reports, 2021).
“And” between values parts separate entries of the source, which are not always exact repeats. Identical values can stand only once. Further values from the same series stand in other lists.

Experiment: Pharmacokinetics after single oral administration to rats
Format: in vivo, rat
Settings: male Wistar rats
Method: Experiments were performed at ChemPartner, Shanghai, China and approved by Institutional Ethics Committee (IEC) of ChemPartner. Male Wistar 10–12 weeks old rats with body weights of 185–220 g and male New Zealand rabbits with body weights of 2.0–2.3 kg were purchased from Shanghai SLAC Laboratory Animal Co., Ltd. MT-SYK-03 was administered to the three groups of rats (six rats per group) via oral gavage at 10 mL/kg concentration, and in rabbits 5 mL/kg concentration. Blood samples were kept on ice and centrifuged (2000 g, 4 ℃, 5 min) within 15 min post sampling.

## COc1cc(Nc2ncnc(Nc3cc4c(cn3)NC(=O)C(C)(C)O4)n2)cc(OC)c1OC [MT-SYK-03]
Table S7, 100 mg/kg PO, 0.25 h, individual Rat#7-12
  Plasma concentration: 401 ng/mL and 436 ng/mL and 404 ng/mL and 463 ng/mL and 388 ng/mL
Table S7, 100 mg/kg PO, 0.5 h, individual Rat#7-12
  Plasma concentration: 654 ng/mL and 612 ng/mL and 677 ng/mL and 709 ng/mL and 707 ng/mL
Table S7, 100 mg/kg PO, 1 h, individual Rat#7-12
  Plasma concentration: 1060 ng/mL and 760 ng/mL and 879 ng/mL and 883 ng/mL and 805 ng/mL
Table S7, 100 mg/kg PO, 2 h, individual Rat#7-12
  Plasma concentration: 687 ng/mL and 576 ng/mL and 603 ng/mL and 618 ng/mL and 608 ng/mL
Table S7, 100 mg/kg PO, 4 h, individual Rat#7-12
  Plasma concentration: 327 ng/mL and 399 ng/mL and 254 ng/mL and 397 ng/mL and 533 ng/mL and 391 ng/mL
Table S7, 100 mg/kg PO, 24 h, individual Rat#7-12
  Plasma concentration: 1.54 ng/mL
Table S7, 100 mg/kg PO, 48 h, individual Rat#7-12
  Plasma concentration: 1.74 ng/mL and 0.932 ng/mL and 2.71 ng/mL
Table S8, 200 mg/kg PO, 0.25 h, individual Rat#13-18
  Plasma concentration: 521 ng/mL and 371 ng/mL and 446 ng/mL and 365 ng/mL and 355 ng/mL
Table S8, 200 mg/kg PO, 0.5 h, individual Rat#13-18
  Plasma concentration: 1010 ng/mL and 1030 ng/mL and 881 ng/mL and 767 ng/mL and 804 ng/mL
Table S8, 200 mg/kg PO, 1 h, individual Rat#13-18
  Plasma concentration: 1430 ng/mL and 1360 ng/mL and 1370 ng/mL and 998 ng/mL and 1170 ng/mL
Table S8, 200 mg/kg PO, 2 h, individual Rat#13-18
  Plasma concentration: 924 ng/mL and 1210 ng/mL and 863 ng/mL and 728 ng/mL and 1320 ng/mL
Table S8, 200 mg/kg PO, 4 h, individual Rat#13-18
  Plasma concentration: 840 ng/mL and 470 ng/mL and 681 ng/mL and 692 ng/mL and 693 ng/mL and 972 ng/mL
Table S8, 200 mg/kg PO, 8 h, individual Rat#13-18
  Plasma concentration: 190 ng/mL and 163 ng/mL and 146 ng/mL and 225 ng/mL and 151 ng/mL and 358 ng/mL
Table S8, 200 mg/kg PO, 24 h, individual Rat#13-18
  Plasma concentration: 4.40 ng/mL and 1.85 ng/mL and 2.41 ng/mL and 2.18 ng/mL and 2.62 ng/mL and 16.5 ng/mL
Table S8, 200 mg/kg PO, 48 h, individual Rat#13-18
  Plasma concentration: 1.82 ng/mL and 0.916 ng/mL and 17.9 ng/mL and 1.14 ng/mL
